From patent US20200355672
For some assays here: Negatives hold for the conditions tested. For at least one entry, the source does not settle the construct or the ends of the probe.

The chains behind the UniProt entries cited, without tags or fusion partners. Where a name states a change or a piece, a line headed by the entry shows the natural chain unless it says otherwise.
UniProt Q15434: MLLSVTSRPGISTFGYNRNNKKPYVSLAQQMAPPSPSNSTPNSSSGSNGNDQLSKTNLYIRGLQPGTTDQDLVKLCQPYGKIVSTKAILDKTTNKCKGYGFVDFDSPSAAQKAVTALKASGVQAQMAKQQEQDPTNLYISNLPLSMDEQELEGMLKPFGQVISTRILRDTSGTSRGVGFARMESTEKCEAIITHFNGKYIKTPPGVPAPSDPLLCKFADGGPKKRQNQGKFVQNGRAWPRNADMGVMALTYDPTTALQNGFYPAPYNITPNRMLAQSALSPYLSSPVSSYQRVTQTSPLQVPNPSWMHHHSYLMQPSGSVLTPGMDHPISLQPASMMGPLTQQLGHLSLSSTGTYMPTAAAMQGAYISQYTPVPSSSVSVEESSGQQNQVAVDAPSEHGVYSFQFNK
UniProt P29558: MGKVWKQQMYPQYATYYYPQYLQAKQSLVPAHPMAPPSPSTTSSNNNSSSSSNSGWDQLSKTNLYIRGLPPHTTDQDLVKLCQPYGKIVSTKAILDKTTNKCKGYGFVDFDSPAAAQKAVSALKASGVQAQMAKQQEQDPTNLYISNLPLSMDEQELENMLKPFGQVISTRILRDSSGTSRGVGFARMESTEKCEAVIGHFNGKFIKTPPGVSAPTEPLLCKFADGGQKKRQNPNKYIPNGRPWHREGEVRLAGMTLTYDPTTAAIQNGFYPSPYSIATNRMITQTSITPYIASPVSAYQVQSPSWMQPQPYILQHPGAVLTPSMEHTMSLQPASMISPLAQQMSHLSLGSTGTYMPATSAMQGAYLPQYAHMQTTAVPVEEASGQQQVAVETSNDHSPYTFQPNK
UniProt Q6XE24: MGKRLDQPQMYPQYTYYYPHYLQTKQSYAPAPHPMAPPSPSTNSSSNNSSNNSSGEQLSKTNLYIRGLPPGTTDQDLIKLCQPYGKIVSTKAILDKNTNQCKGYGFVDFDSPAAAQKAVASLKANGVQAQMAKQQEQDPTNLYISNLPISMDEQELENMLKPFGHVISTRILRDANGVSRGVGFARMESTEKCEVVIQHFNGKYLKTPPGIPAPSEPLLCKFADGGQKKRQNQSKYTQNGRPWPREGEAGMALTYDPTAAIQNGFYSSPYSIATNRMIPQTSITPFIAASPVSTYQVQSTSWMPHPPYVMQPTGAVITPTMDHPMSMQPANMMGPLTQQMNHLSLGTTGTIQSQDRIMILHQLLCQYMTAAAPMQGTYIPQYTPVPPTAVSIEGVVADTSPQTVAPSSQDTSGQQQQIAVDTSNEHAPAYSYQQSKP

Legend:
Assay in all cases: activity in cells
RBMS2 (Homo sapiens) = RBMS2 (Homo sapiens) (UniProt Q15434); conditions: protein in cells, protein details: FLAG
RBMS1 (Homo sapiens) = RBMS1 (Homo sapiens) (UniProt P29558); conditions: luciferase increased, HEK293T; protein in cells
RBMS3 (Homo sapiens) = RBMS3 (Homo sapiens) (UniProt Q6XE24); conditions: luciferase increased, HEK293T; protein in cells

Sequence	functional effect (RBMS2 (Homo sapiens); luciferase increased, HEK293T)	also measured
ACAUUACUAAUUUGAAUGGAAAACACAUGGUGUGAGUCCAAAGAAGGUGUUUUCCUGAAGAACUGUCUAUUUUCUCAGUCAUUUUUAACCUCUAGAGUCACUGAUACACAGAAUAUAAUCUUAUUUAUACCUCAGUUUGCAUAUUUUUUUACUAUUUAGAAUGUAGCCCUUUUUGUACUGAUAUAAUUUAGUUCCACAAAUGGUGGGUACAAAAAGUCAAGUUUGUGGCUUAUGGAUUCAUAUAGGCCAGAGUUGCAAAGAUCUUUUCCAGAGUAUGCAACUCUGACGUUGAUCCCAGAGAGCAGCUUCAGUGACAAACAUAUCCUUUCAAGACAGAAAGAGACAGGAGACAUGAGUCUUUGCCGGAGGAAAAGCAGCUCAAGAACACAUGUGCAGUCACUGGUGUCACCCUGGAUAGGCAAGGGAUAACUCUUCUAACACAAAAUAAGUGUUUUAUGUUUGGAAUAAAGUCAACCUUGUUUCUACUGUUUUAUACACUUUCAAAAAAAAAAAAAAAAAAAAAAAAAA [MMP1 3'UTR]	active	
AUGCUACCUGGGUUUCCAGGGCACACCUAGACAAACAAGGGAGAAGAGUGUCAGAAUCAGAAUCAUGGAGAAAAUGGGCGGGGGUGGUGUGGGUGAUGGGACUCAUUGUAGAAAGGAAGCCUUGCUCAUUCUUGAGGAGCAUUAAGGUAUUUCGAAACUGCCAAGGGUGCUGGUGCGGAUGGACACUAAUGCAGCCACGAUUGGAGAAUACUUUGCUUCAUAGUAUUGGAGCACAUGUUACUGCUUCAUUUUGGAGCUUGUGGAGUUGAUGACUUUCUGUUUUCUGUUUGUAAAUUAUUUGCUAAGCAUAUUUUCUCUAGGCUUUUUUCCUUUUGGGGUUCUACAGUCGUAAAAGAGAUAAUAAGAUUAGUUGGACAGUUUAAAGCUUUUAUUCGUCCUUUGACAAAAGUAAAUGGGAGGGCAUUCCAUCCCUUCCUGAAGGGGGACACUCCAUGAGUGUCUGUGAGAGGCAGCUAUCUGCACUCUAAACUGCAAACAGAAAUCAGGUGUUUUAAGACUGAAUGUUUUAUUUAUCAAAAUGUAGCUUUUGGGGAGGGAGGGGAAAUGUAAUACUGGAAUAAUUUGUAAAUGAUUUUAAUUUUAUAUUCAGUGAAAAGAUUUUAUUUAUGGAAUUAACCAUUUAAUAAAGAAAUAUUUACCUAAUAUCUGAGUGUAUGCCAUUCGGUAUUUUUAGAGGUGCUCCAAAGUCAUUAGGAACAACCUAGCUCACGUACUCAAUUAUUCAAACAGGACUUAUUGGGAUACAGCAGUGAAUUAAGCUAUUAAAAUAAGAUAAUGAUUGCUUUUAUACCUUCAGUAGAGAAAAGUCUUUGCAUAUAAAGUAAUGUUUAAAAAACAUGUAUUGAACACGACAUUGUAUGAAGCACAAUAAAGAUUCUGAAGCUAAAUUUGUGAUUU [CYR61 3'UTR]	active	
CAUGGGCACCUCAGAUUGUUGUUGUUAAUGGGCAUUCCUUCUUCUGGUCAGAAACCUGUCCACUGGGCACAGAACUUAUGUUGUUCUCUAUGGAGAACUAAAAGUAUGAGCGUUAGGACACUAUUUUAAUUAUUUUUAAUUUAUUAAUAUUUAAAUAUGUGAAGCUGAGUUAAUUUAUGUAAGUCAUAUUUAUAUUUUUAAGAAGUACCACUUGAAACAUUUUAUGUAUUAGUUUUGAAAUAAUAAUGGAAAGUGGCUAUGCAGUUUG [IL-6 3'UTR (NM_000600.4 755-1023)]	active	functional effect (RBMS1 (Homo sapiens)): active; functional effect (RBMS3 (Homo sapiens)): active
CAUGGGCACCUCAGAUUGUUGUUGUUAAUGGGCAUUCCUUCUUCUGGUCAGAAACCUGUCCACUGGGCACAGAACUUAUGUUGUUCUCUAUGGAGAACUAAAAGUAUGAGCGUUAGGACACUAUUUUAAUUAUUUUUAAUUUAUUAAUAUUUAAAUAUGUGAAGCUGAGUUAAUUUAUGUAAGUCAUAUUUAUAUUUUUAAGAAGUACCACUUGAAACAUUUUAUGUAUUAGUUUUGAAAUAAUAAUGGAAAGUGGCUAUGCAGUUUGAAUAUCCUUUGUUUCAGAGCCAGAUCAUUUCUUGGAAAGUGUAGGCUUACCUCAAAUAAAUGGCUAACUUAUACAUAUUUUUAAAGAAAUAUUUAUAUUGUAUUUAUAUAAUGUAUAAAUGGUUUUUAUACCAAUAAAUGGCAUUUUAAAAAAUUCAGCAAAAAAAAAAAAAAAAAAA [IL-6 3'UTR reporter]	active	
GGAUCCACAAGUCCUUGUUCCACUGUGCCUUGGUUUCUCCUUUAUUUCUAAGUGGAAAAAGUAUUAGCCACCAUCUUACCUCACAGUGAUGUUGUGAGGACAUGUGGAAGCACUUUAAGUUUUUUCAUCAUAACAUAAAUUAUUUUCAAGUGUAACUUAUUAACCUAUUUAUUAUUUAUGUAUUUAUUUAAGCAUCAAAUAUUUGUGCAAGAAUUUGGAAAAAUAGAAGAUGAAUCAUUGAUUGAAUAGUUAUAAAGAUGUUAUAGUAAAUUUAUUUUAUUUUAGAUAUUAAAUGAUGUUUUAUUAGAUAAAUUUCAAUCAGGGUUUUUAGAUUAAACAAACAAACAAUUGGGUACC [IL-8 3'UTR (NM_000584.3 936-1293)]		functional effect (RBMS1 (Homo sapiens)): active; functional effect (RBMS3 (Homo sapiens)): active
GGUCCCCAGGGAGGAAACGGGCACCACCCGCUUUCUUGCUGGUUGUCAUUUUUGCAGUAGAGUCAUCUCCAUCAGCUGUAAGAAGAGACUGGGAAGAUAGGCUCUGCACAGAUGGAUUUGCCUGUGCCACCCACCAGGGCGAACGACAAUAGCUUUACCCUCAGGCAUAGGCCUGGGUGCUGGCUGCCCAGACCCCUCUGGCCAGGAUGGAGGGGUGGUCCUGACUCAACAUGUUACUGACCAGCAACUUGUCUUUUUCUGGACUGAAGCCUGCAGGAGUUAAAAAGGGCAGGGCAUCUCCUGUGCAUGGGUGAAGGGAGAGCCAGCUCCCCCGACGGUGGGCAUUUGUGAGGCCCAUGGUUGAGAAAUGAAUAAUUUCCCAAUUAGGAAGUGUAACAGCUGAGGUCUCUUGAGGGAGCUUAGCCAAUGUGGGAGCAGCGGUUUGGGGAGCAGAGACACUAACGACUUCAGGGCAGGGCUCUGAUAUUCCAUGAAUGUAUCAGGAAAUAUAUAUGUGUGUGUAUGUUUGCACACUUGUGUGUGGGCUGUGAGUGUAAGUGUGAGUAAGAGCUGGUGUCUGAUUGUUAAGUCUAAAUAUUUCCUUAAACUGUGUGGACUGUGAUGCCACACAGAGUGGUCUUUCUGGAGAGGUUAUAGGUCACUCCUGGGGCCUCUUGGGUCCCCCACGUGACAGUGCCUGGGAAUGUAUUAUUCUGCAGCAUGACCUGUGACCAGCACUGUCUCAGUUUCACUUUCACAUAGAUGUCCCUUUCUUGGCCAGUUAUCCCUUCCUUUUAGCCUAGUUCAUCCAAUCCUCACUGGGUGGGGUGAGGACCACUCCUGUACACUGAAUAUUUAUAUUUCACUAUUUUUAUUUAUAUUUUUGUAAUUUUA [PLAU 3'UTR]	active	
GUACUGCCCGUGCAAAUCCCACAACACUGAAUGCAAAGUAGCAAUUUCCAUAGUCACAGUUAGGUAGCUUUAGGGCAAUAUUGCCAUGGUUUUACUCAUGUGCAGGUUUUGAAAAUGUACAAUAUGUAUAAUUUUUAAAAUGUUUUAUUAUUUUGAAAAUAAUGUUGUAAUUCAUGCCAGGGACUGACAAAAGACUUGAGACAGGAUGGUUACUCUUGUCAGCUAAGGUCACAUUGUGCCUUUUUGACCUUUUCUUCCUGGACUAUUGAAAUCAAGCUUAUUGGAUUAAGUGAUAUUUCUAUAGCGAUUGAAAGGGCAAUAGUUAAAGUAAUGAGCAUGAUGAGAGUUUCUGUUAAUCAUGUAUUAAAACUGAUUUUUAGCUUUACAAAUAUGUCAGUUUGCAGUUAUGCAGAAUCCAAAGUAAAUGUCCUGCUAGCUAGUUAAGGAUUGUUUUAAAUCUGUUAUUUUGCUAUUUGCCUGUUAGACAUGACUGAUGACAUAUCUGAAAGACAAGUAUGUUGAGAGUUGCUGGUGUAAAAUACGUUUGAAAUAGUUGAUCUACAAAGGCCAUGGGAAAAAUUCAGAGAGUUAGGAAGGAAAAACCAAUAGCUUUAAAACCUGUGUGCCAUUUUAAGAGUUACUUAAUGUUUGGUAACUUUUAUGCCUUCACUUUACAAAUUCAAGCCUUAGAUAAAAGAACCGAGCAAUUUUCUGCUAAAAAGUCCUUGAUUUAGCACUAUUUACAUACAGGCCAUACUUUACAAAGUAUUUGCUGAAUGGGGACCUUUUGAGUUGAAUUUAUUUUAUUAUUUUUAUUUUGUUUAAUGUCUGGUGCUUUCUGUCACCUCUUCUAAUCUUUUAAUGUAUUUGUUUGCAAUUUUGGGGUAAGACUUUUUUUAUGAGUACUUUUUCUUUGAAGUUUUAGCGGUCAAUUUGCCUUUUUAAUGAACAUGUGAAGUUAUACUGUGGCUAUGCAACAGCUCUCACCUACGCGAGUCUUACUUUGAGUUAGUGCCAUAACAGACCACUGUAUGUUUACUUCUCACCAUUUGAGUUGCCCAUCUUGUUUCACACUAGUCACAUUCUUGUUUUAAGUGCCUUUAGUUUUAACAGUUCACUUUUUACAGUGCUAUUUACUGAAGUUAUUUAUUAAAUAUGCCUAAAAUACUUAAAUCGGAUGUCUUGACUCUGAUGUAUUUUAUCAGGUUGUGUGCAUGAAAUUUUUAUAGAUUAAAGAAGUUGAGGAAAAGCAAAAAAAAAA [ITGB1 3'UTR]	active	
UAUUUUAAUUAUUUUUAAGGGAUUAAUAGGGAAAUAUGUGAAGCUGAGUUAAGGGAUGUAAGUCAUAGGGA [IL-6 3'UTR ARE mutant]		functional effect (RBMS2 (Homo sapiens); no luciferase increase, U to G in ARE, variant of IL-6 3'UTR reporter): not active
